Measured values from doi:10.1101/335232.
No constants are given. Whether binding was seen depends on the method and setting. Some binding calls cover weakened binding; strength is not graded here.

By UniProt entry, the sequences of proteins in these tests, tags left out. Residues count along the entry.
UniProt P05090, 21-189: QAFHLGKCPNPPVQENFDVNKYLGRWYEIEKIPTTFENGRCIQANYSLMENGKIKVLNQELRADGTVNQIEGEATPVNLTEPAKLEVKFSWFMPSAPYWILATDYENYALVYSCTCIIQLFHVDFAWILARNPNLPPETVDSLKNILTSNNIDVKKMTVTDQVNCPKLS

Key:
[1] = target: Human apolipoprotein-D (apoD) in cerebrospinal fluid (human) (UniProt P05090); assay: native gel or EMSA
[2] = target: Human apolipoprotein-D (apoD) in cerebrospinal fluid (human) (UniProt P05090); assay: SEC

Substance: Human apolipoprotein-D (apoD) in cerebrospinal fluid (from UniProt P05090 21-189)
- binding [1]: binds
- binding [2]: binds
